These are yes or no findings as the source states them, for the method shown. In cells and extracts the contact can be indirect. Some entries that bind do so weakly or less than the wild type. For some assays here: Where a sequence is shown, tags or fusion partners need not be part of it. One block for each molecule: values may come before it.
Tests used:
HA-tagged Raptor = HA-tagged Raptor (UniProt Q8N122); test: co-IP; HA-tagged Raptor co-expressed with Flag-tagged AKAP13 full-length or truncations for 24 hours; HA IP; immunoblot
[1] = target: Flag-tagged AKAP13 full-length (amino acids 1–2817) (human) (UniProt Q12802); test: co-IP; Flag-tagged AKAP13 co-expressed with HA-tagged Raptor in HEK293A cells for 24 hours; 0.3% CHAPS lysis; anti-Flag beads; immunoblot

The chains behind the UniProt entries cited, without tags or fusion partners.
UniProt Q8N122: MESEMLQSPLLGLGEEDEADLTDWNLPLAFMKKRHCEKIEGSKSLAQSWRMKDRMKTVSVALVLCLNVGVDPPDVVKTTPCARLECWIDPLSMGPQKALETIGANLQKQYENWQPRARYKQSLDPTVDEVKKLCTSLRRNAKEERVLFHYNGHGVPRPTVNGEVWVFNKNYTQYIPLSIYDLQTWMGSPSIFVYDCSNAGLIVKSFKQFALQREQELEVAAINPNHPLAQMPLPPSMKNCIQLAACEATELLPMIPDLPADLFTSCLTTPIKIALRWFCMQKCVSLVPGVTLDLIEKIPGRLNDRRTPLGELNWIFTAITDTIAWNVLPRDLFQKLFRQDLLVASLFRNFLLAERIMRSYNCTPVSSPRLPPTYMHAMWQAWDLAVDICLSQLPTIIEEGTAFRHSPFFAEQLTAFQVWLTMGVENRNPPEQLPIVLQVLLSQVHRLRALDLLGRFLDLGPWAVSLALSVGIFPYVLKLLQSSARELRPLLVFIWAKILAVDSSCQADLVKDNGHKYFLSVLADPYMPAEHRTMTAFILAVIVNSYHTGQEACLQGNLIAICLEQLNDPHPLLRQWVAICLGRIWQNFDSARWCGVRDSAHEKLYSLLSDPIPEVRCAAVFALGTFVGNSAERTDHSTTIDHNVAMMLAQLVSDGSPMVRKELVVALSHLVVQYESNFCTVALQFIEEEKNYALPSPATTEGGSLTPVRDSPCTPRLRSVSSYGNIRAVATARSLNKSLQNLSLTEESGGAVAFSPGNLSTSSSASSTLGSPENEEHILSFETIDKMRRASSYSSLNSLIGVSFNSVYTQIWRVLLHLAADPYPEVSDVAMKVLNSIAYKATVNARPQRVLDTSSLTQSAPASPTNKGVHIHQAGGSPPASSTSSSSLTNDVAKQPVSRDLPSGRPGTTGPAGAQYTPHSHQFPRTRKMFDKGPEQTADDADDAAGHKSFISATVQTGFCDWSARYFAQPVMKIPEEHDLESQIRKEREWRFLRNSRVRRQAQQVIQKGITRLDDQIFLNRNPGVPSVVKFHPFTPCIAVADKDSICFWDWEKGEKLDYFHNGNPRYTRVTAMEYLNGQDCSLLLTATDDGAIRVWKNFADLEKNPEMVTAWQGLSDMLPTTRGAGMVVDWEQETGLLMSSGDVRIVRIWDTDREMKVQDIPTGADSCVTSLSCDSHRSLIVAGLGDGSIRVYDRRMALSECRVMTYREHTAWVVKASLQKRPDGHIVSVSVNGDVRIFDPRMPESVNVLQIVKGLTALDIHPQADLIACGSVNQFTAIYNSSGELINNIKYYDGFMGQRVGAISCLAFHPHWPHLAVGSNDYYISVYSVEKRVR
UniProt P13861: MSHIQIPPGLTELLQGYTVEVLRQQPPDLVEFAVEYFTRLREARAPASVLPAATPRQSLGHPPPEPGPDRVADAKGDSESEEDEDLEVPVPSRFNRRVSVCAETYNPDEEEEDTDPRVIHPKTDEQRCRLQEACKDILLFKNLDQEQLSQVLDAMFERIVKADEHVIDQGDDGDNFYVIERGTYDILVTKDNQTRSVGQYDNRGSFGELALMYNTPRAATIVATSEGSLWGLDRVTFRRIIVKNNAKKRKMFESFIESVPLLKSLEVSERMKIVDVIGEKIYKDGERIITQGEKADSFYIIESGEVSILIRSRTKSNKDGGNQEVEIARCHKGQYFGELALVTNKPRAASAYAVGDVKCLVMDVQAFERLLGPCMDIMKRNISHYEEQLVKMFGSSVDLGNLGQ
UniProt P10644: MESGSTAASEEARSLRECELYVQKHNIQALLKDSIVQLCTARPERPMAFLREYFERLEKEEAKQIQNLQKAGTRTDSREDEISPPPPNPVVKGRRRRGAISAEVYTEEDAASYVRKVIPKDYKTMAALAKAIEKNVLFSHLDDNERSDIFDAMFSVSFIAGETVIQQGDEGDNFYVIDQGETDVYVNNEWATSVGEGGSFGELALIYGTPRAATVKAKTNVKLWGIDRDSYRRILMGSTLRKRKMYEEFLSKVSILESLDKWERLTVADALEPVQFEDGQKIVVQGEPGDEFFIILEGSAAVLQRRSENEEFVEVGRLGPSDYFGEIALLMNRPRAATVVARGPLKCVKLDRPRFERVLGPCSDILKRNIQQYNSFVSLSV

Molecule: Flag-tagged AKAP13 full-length (amino acids 1–2817) (from UniProt Q12802-2 1-2817)
binding (HA-tagged Raptor): binds

Molecule: PKA regulatory subunit IIα (from UniProt P13861 1-404)
binding (HA-tagged Raptor): binds

Continued, values first:

binding [1]: binds
Molecule: HA-tagged Raptor (from UniProt Q8N122 1-1335)

binding [1]: no binding
Molecule: PKA regulatory subunit Iα (from UniProt P10644 1-381)

binding (HA-tagged Raptor): binds
B1: Flag-tagged AKAP13 1388–2190 (domain or fragment, UniProt Q12802-2 1388-2190)
chain: INRENWCTIEPCPDAASLLASKQSPECENFLDVGLGRECTSKQGVLKRESGSDSDLFHSPSDDMDSIIFPKPEEEHLACDITGSSSSTDDTASLDRHSSHGSDVSLSQILKPNRSRDRQSLDGFYSHGMGAEGRESESEPADPGDVEEEEMDSITEVPANCSVLRSSMRSLSPFRRHSWGPGKNAASDAEMNHRSMSWCPSGVQYSAGLSADFNYRSFSLEGLTGGAGVGNKPSSSLEVSSANAEELRHPFSGEERVDSLVSLSEEDLESDQREHRMFDQQICHRSKQQGFNYCTSAISSPLTKSISLMTISHPGLDNSRPFHSTFHNTSANLTESITEENYNFLPHSPSKKDSEWKSGTKVSRTFSYIKNKMSSSKKSKEKEKEKDKIKEKEKDSKDKEKDKKTVNGHTFSSIPVVGPISCSQCMKPFTNKDAYTCANCSAFVHKGCRESLASCAKVKMKQPKGSLQAHDTSSLPTVIMRNKPSQPKERPRSAVLLVDETATTPIFANRRSQQSVSLSKSVSIQNITGVGNDENMSNTWKFLSHSTDSLNKISKVNESTESLTDEGVGTDMNEGQLLGDFEIESKQLEAESWSRIIDSKFLKQQKKDVVKRQEVIYELMQTEFHHVRTLKIMSGVYSQGMMADLLFEQQMVEKLFPCLDELISIHSQFFQRILERKKESLVDKSEKNFLIKRIGDVLVNQFSGENAERLKKTYGKFCGQHNQSVNYFKDLYAKDKRFQAFVKKKMSSSVVRRLGIPECILLVTQRITKYPVLFQRILQCTKDNEVEQEDLAQSLSLVKDVIG
